Earlier results, collected in patent US4080454A, “5-M-Tolyloxyuracil, anti-ulcer agent” (priority 1976, dated 1978).
At least one structure is not confirmed: it was looked up by name or label, or the drawing left a doubt.

System: sarcoma 180
Conditions: preliminary biological testing; Yao-Hsueh Pao 10, 600, 1963; cited from earlier work

Compound: O=c1[nH]cc(Oc2cccc(F)c2)c(=O)[nH]1 [m-fluorophenoxyuracil]
- growth of sarcoma 180 in mice: inhibited the growth of sarcoma 180 in mice
